# Results are given in words; binding and its absence hold for the method and conditions named. In cells and extracts the contact can be indirect. These calls come from enrichment with a bait or labelling near it, and not all partners need be listed. For some assays here: Sequences can lack the tags named with a protein.
# Amino acid sequences for entries named in this document (tags omitted).
# UniProt P11387: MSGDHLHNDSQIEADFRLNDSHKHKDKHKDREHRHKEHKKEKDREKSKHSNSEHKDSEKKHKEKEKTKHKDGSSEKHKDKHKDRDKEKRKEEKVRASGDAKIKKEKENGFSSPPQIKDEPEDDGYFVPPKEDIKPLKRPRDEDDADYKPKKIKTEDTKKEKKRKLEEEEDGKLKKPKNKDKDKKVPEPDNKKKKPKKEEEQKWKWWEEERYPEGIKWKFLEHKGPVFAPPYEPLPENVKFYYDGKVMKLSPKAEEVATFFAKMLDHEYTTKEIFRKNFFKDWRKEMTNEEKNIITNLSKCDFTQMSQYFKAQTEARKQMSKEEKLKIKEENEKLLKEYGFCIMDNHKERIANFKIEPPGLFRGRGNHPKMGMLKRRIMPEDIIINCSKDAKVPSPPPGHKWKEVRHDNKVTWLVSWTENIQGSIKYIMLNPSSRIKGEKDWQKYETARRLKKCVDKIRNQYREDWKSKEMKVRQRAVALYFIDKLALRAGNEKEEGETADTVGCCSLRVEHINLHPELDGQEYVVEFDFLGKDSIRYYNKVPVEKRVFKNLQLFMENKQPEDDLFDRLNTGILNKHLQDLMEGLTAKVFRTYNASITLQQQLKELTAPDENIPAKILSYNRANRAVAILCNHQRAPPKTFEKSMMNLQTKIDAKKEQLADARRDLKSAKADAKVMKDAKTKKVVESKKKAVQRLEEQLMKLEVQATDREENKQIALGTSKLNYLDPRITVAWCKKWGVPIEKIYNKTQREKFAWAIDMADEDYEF
# UniProt P11388: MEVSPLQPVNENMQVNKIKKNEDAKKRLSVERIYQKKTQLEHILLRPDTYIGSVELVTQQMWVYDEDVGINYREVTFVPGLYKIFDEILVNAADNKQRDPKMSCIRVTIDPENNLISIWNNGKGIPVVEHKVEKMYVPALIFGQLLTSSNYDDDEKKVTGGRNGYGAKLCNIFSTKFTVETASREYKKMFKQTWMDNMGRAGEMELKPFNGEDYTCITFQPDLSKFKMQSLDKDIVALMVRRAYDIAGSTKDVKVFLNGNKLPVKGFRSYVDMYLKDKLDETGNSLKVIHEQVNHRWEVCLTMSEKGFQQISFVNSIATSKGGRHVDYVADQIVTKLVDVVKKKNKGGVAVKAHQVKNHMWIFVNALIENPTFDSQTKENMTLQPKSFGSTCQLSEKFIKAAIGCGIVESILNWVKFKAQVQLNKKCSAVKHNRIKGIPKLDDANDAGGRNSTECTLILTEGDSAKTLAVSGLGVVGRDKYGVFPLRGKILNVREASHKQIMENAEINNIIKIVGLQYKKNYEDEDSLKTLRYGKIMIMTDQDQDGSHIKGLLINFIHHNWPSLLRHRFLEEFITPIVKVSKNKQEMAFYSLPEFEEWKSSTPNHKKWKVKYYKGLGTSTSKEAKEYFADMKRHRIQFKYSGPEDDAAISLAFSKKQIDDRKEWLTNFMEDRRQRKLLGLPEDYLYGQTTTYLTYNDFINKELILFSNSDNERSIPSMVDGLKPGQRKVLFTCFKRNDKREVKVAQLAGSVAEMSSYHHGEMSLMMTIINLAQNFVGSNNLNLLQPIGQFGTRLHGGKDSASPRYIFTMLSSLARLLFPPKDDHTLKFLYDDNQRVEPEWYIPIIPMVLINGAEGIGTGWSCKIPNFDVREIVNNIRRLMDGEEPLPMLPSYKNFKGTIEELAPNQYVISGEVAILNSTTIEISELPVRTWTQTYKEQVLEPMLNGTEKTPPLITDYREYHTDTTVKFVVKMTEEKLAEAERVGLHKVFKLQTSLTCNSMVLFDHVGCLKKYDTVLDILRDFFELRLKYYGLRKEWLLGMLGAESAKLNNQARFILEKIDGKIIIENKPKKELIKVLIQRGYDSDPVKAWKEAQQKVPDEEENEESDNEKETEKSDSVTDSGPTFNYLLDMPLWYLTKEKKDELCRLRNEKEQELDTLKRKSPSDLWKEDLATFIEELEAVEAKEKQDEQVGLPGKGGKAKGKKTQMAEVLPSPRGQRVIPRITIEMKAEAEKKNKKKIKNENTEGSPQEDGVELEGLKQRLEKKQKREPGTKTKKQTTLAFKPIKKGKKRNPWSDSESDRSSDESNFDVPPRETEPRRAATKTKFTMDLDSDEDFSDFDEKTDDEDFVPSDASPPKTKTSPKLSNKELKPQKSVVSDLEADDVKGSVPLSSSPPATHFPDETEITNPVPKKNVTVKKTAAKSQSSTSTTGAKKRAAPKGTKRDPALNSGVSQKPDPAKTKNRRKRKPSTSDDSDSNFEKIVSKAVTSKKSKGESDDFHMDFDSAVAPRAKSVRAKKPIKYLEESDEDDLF
# UniProt Q02880: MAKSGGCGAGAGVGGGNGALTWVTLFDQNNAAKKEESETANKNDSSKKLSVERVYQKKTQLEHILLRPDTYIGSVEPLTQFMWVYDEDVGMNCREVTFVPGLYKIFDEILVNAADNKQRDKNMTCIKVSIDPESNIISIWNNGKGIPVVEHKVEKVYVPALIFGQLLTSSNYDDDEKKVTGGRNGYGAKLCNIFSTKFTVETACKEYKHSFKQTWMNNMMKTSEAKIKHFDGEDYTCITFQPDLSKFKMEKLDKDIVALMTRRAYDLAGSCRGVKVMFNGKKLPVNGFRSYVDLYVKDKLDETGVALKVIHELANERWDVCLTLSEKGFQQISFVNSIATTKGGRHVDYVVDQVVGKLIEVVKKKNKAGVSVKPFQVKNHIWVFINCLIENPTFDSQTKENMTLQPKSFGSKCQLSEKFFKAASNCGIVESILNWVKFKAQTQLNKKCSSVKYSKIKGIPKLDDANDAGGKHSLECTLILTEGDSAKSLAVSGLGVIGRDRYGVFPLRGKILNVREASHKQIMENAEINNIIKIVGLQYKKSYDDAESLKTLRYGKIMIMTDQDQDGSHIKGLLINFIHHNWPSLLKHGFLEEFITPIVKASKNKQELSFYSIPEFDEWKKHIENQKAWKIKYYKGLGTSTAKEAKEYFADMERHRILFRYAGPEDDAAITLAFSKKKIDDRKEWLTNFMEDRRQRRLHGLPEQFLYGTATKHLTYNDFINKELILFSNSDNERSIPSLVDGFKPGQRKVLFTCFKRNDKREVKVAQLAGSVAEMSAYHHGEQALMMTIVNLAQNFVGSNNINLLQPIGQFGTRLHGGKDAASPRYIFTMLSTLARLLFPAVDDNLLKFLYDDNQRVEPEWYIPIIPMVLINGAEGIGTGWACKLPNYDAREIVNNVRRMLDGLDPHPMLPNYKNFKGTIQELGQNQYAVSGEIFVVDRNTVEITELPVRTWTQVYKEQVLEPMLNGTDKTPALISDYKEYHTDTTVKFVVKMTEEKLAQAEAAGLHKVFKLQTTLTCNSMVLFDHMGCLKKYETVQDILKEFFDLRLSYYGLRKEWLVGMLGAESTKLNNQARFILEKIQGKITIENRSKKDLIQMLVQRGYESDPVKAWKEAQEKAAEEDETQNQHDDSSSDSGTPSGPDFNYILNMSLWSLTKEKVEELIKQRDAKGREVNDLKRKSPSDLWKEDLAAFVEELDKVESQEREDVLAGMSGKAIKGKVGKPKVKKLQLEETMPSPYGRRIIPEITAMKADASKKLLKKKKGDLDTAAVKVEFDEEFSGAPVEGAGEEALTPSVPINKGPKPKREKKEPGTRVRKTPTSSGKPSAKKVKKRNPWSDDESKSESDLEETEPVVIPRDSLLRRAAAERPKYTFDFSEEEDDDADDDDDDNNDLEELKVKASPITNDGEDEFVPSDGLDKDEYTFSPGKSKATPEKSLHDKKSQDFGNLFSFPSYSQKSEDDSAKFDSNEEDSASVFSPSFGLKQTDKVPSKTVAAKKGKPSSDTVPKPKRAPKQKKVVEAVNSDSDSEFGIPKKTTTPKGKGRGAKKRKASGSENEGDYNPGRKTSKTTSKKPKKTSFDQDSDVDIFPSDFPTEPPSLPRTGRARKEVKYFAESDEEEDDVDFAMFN
# T1: FLAG-PIAS4 (human) (UniProt Q8N2W9)
# T1 sequence: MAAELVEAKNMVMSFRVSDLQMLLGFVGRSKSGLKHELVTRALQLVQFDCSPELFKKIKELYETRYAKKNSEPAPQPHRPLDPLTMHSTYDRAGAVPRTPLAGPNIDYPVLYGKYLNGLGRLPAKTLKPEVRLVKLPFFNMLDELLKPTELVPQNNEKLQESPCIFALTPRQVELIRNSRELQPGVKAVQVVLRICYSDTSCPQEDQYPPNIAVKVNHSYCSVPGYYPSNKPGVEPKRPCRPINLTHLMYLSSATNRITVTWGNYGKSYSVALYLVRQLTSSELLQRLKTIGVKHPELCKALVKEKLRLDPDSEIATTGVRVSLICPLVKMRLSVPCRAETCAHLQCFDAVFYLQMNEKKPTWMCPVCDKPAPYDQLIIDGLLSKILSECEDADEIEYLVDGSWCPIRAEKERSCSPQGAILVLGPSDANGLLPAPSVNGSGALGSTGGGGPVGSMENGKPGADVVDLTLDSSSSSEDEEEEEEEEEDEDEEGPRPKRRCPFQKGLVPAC
# B1: PIAS4 (protein, UniProt Q8N2W9 1-510)
# chain: T1 sequence
# Tests used:
# Assay in all cases: affinity purification with mass spectrometry
# FLAG-PIAS4 (human) = target: T1, FLAG-PIAS4 (human)
# [1] = target: 6×His tagged TOP1 (human) (UniProt P11387)
# [2] = target: FLAG tagged TOP2α (human) (UniProt P11388)
# [3] = target: FLAG tagged TOP2β (human) (UniProt Q02880)
Molecule,binding (FLAG-PIAS4 (human)),binding [1],binding [2],binding [3]
TOP2β (from UniProt Q02880 1-1626),binds,–,–,–
TOP1 (from UniProt P11387 1-765),binds,–,–,–
B1,–,binds,binds,binds

# — publication doi:10.1101/707661
